PubChem BioAssay AID602196 – INSERM – 2012
Assay: 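Modifiers of cisplatin sensitivity in A549 cells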. Cell system: human A549 lung cancer cells. Reagents: siRNA pair against human genes. Timing: 48 h transfection before cisplatin; time from cisplatin to read-out not stated. Treatment: cisplatin at a dose killing half of control-siRNA cells; exact dose and duration not given. Read-out: 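Shift in cisplatin death relative to control siRNA, from -50 (all cells die) to +50 (no cells die); siRNAs harmful on their own scored 0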. Direction: two-siRNA summed score (-2 to +2): higher = both siRNAs protect from cisplatin killing; -2 means both sensitise; mean protection from cisplatin (shift in death) and protection from cisplatin (shift in death), siRNA C: higher = protection from cisplatin killing. Active means: 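Each siRNA scores 0 if harmful alone by LDH or WST-1, otherwise +1 if it reduces and -1 if it increases cisplatin killing; a gene is active when both siRNAs agree (sum +2 or -2)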. Meaning of the calls: active = both siRNAs shift cisplatin killing the same way; inactive = no consistent shift, or siRNA harmful alone.
The whole screen tested about 23,000 reagents; this is a part drawn at random. 455 of them (2%) were called active. 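Active includes both protection and sensitisation; some change values fall well beyond the stated -50 to +50 range.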 Entries without a mark were called inactive. Reagents against one gene are numbered here. Not all columns of the deposit are shown. Reagent sequences are not shown. The record does not give: the amount of reagent.

The first 3 records as a preview:
gene | reagent no. | two-siRNA summed score (-2 to +2) | mean protection from cisplatin (shift in death) (%) | protection from cisplatin (shift in death), siRNA C (%)
LOC441061 | 1 | -1 | -0.1 | 10.6
ZNF595 | 1 | 0 | 7.2 | 6.7
ZNF227 | 1 | 1 | 4.8 | -5.5

The list itself, repeating the preview:
gene | reagent no. | two-siRNA summed score (-2 to +2) | mean protection from cisplatin (shift in death) (%) | protection from cisplatin (shift in death), siRNA C (%)
LOC441061 | 1 | -1 | -0.1 | 10.6
ZNF595 | 1 | 0 | 7.2 | 6.7
ZNF227 | 1 | 1 | 4.8 | -5.5
CNIH1 | 1 | 0 | 10 | 17.1
LNX2 | 1 | 0 | 15 | 19.7
ADA | 1 | 2 (active) | 17.2 | 13
HHLA1 | 1 | -1 | -10.7 | -28.3
MTCH1 | 1 | 1 | 10.9 | 23
OR3A4P | 1 | 0 | 13.8 | 10.8
LOC442470 | 1 | 0 | 11.7 | 15.6
NUDT15 | 1 | 0 | 13.5 | 4
DRAM1 | 1 | -1 | -11.5 | -9.1
KCNQ4 | 1 | 0 | -5 | -3.2
UBASH3A | 1 | 0 | -6.6 | 7.7
RHOD | 1 | 0 | -10.9 | -10.2
SVBP | 1 | 0 | 31.1 | 23.9
ADGRA1 | 1 | -1 | -7.5 | -3.2
DHX9 | 1 | 0 | 9.6 | 3.6
ALDH1A3 | 1 | -1 | -14.8 | -9.2
ALDH1A3 | 2 | 0 | -0.2 | -1.6
NDRG4 | 1 | 0 | 5.9 | 10.5
RPA1 | 1 | -1 | -4.5 | -21.6
LOC442514 | 1 | 1 | 15.7 | 7.3
LOC389657 | 1 | 0 | 2.3 | 3.4
NPAP1 | 1 | 0 | 0 | -3.8
CNOT6L | 1 | 1 | 10.2 | 19.4
LOC401061 | 1 | 0 | 4.8 | 8.8
MGC35440 | 1 | 0 | -5.3 | 0.2
OR52I1 | 1 | 0 | 14.8 | -8.5
TDRD9 | 1 | 0 | 12.1 | 13.9
FTLP3 | 1 | 0 | 12.6 | 17.5
SAXO5 | 1 | 1 | 4.7 | 14.2
LOC400612 | 1 | 0 | 9.2 | 8
LOC202051 | 1 | 0 | -3.3 | -1.6
MYOZ1 | 1 | 0 | -5.5 | -4.2
GPHA2 | 1 | 0 | 3.2 | -5.6
VAMP3 | 1 | 0 | 5.7 | 4.5
ACKR5 | 1 | 1 | 7.6 | -1.4
GFI1B | 1 | 0 | 5.5 | -2.9
BICD2 | 1 | 0 | 4 | -0.7
KCNG1 | 1 | -1 | -10.2 | 0.4
GMCL1 | 1 | 0 | -1.5 | -1.1
ZNF610 | 1 | 0 | -4.8 | -9.1
NUDT14 | 1 | 0 | -8 | -12.1
RPS4Y1 | 1 | 1 | 8.9 | 23.3
RTN4RL2 | 1 | -1 | -11.2 | -0.3
EPX | 1 | 1 | 8.6 | 24.3
LOC392546 | 1 | 1 | 8 | 11.6
C4orf33 | 1 | 0 | 6.2 | 6.7
LOC440230 | 1 | 1 | 12.7 | 6.9
UTP3 | 1 | 0 | 4.4 | 1.6
CIART | 1 | 0 | -0.2 | -8.7
AP3S1 | 1 | 0 | -5.1 | -0.5
LOC442200 | 1 | 1 | 10.1 | 6.3
STAMBPL1 | 1 | -1 | -6.1 | -33.5
TBPL2 | 1 | 1 | 14.9 | 16.9
CLEC14A | 1 | 0 | -13.3 | -13.8
ANKRD36B | 1 | 0 | -2.2 | 2.5
LOC441235 | 1 | 0 | 4.6 | 1.2
LOC388361 | 1 | 0 | 5.9 | -4.2
LOC440724 | 1 | 0 | 12.2 | 12.1
NME3 | 1 | 0 | -3.3 | 22.3
P2RY14 | 1 | 2 (active) | 22.7 | 19.4
LOC389833 | 1 | -1 | -8.8 | -21.1
CLK1 | 1 | 0 | 19.8 | 28.4
TAS2R16 | 1 | -1 | -6.5 | 2.5
ARL17A | 1 | 0 | -1.6 | -0.4
NOL4L | 1 | -1 | -4.4 | 8.6
FOSL1 | 1 | -1 | -5.9 | -13.8
ZFAND2A | 1 | 1 | 14.4 | 22.3
EWSAT1 | 1 | 0 | -1.5 | 5
LMCD1 | 1 | 0 | 9.1 | 10.5
GPR34 | 1 | -1 | -7.2 | 1.7
